From patent US7301033B2, “PPAR-activating compound” (Kowa Co., Ltd., priority 2005, dated 2007)
At least one structure is not confirmed: it was looked up by name or label, or the drawing left a doubt.

Key:
Assay type in all cases: cell-based
human PPARγ2 = target: T1, human PPARγ2 (Homo sapiens, UniProt P37231); assay: Gal4-human PPARγ2 chimera luciferase transfection assay in COS cells; conditions: compound added at 1 μM, luciferase activity with rosiglitazone 1 μM given as 10.0, 16 hours
T1 construct: with 182nd to 505th amino acids of human PPARγ2; expressed in transfected cells; host or cells: COS cells (African green monkey kidney)
T1 sequence (P37231 182-505): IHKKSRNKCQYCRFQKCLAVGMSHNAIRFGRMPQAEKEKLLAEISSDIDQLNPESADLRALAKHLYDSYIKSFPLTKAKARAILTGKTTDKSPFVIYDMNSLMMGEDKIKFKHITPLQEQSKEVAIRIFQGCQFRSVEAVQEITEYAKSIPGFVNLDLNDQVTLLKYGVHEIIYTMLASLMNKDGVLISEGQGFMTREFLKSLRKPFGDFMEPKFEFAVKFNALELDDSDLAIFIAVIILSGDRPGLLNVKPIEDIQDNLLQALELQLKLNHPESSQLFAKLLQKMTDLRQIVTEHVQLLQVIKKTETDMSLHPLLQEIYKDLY
Method: (§1) The PPAR receptor-activating effect of the compound of the present invention represented by the formula (1) was measured by a method described below (Proc. Natl. Acad. Sci., 92, pp 7297-7301, 1995; Journal of Lipid Research, 40, pp 2099-2110, 1999; and Proc. Natl. Acad. Sci, 98, pp 5306-5311, 2001).
(§2) All the transfection assays were conducted using African green monkey kidney-derived cell line COS cells. The COS cells were cultured at 5% CO2 concentration using a DMEM medium containing 10% fetal bovine serum, glutamic acid, and an antibiotic as a culture solution.
(§3) Gal4-human PPARs chimeric constructs which were fused the DNA-binding region of yeast transcription factor Gal4 with the ligand-binding region of human PPARs were used as an expression vector. A chimera where 1st to 147th amino acids of the Gal4 transcription factor were fused with 166th to 467th amino acids of human PPARα, with 182nd to 505th amino acids of human PPARγ2, or with 137th to 441st amino acids of human PPARδ was used as the chimera for each isoform. […]
(§4) After the transfection into the cells, the medium was substituted with a DMEM medium (containing 0.2% serum) supplemented with the compound, in which the cells were then cultured for additional 16 hours. Thereafter, luciferase activity and β-galactosidase activity in the cell lysate were measured. […]

human PPARδ = target: T2, human PPARδ (Homo sapiens, UniProt Q03181); assay: Gal4-human PPARδ chimera luciferase transfection assay in COS cells; conditions: compound added at 1 μM, luciferase activity with GW501516 1 μM given as 10.0, 16 hours
T2 construct: with 137th to 441st amino acids of human PPARδ; expressed in transfected cells; host or cells: COS cells (African green monkey kidney)
T2 sequence (Q03181 137-441): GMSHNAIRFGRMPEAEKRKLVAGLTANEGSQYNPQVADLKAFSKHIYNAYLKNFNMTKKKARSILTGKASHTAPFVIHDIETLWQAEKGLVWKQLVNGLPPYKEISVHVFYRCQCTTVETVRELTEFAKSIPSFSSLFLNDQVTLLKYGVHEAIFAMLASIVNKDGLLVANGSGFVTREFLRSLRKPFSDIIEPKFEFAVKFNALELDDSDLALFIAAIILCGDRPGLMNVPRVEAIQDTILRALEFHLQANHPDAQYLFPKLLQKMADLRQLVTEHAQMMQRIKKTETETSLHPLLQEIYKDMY
Method: as §1, §2, §3, §4

human PPARα = target: T3, human PPARα (Homo sapiens, UniProt Q07869); assay: Gal4-human PPARα chimera luciferase transfection assay in COS cells; conditions: compound added at 1 μM, luciferase activity with WY14643 10 μM given as 10.0, 16 hours
T3 construct: 166th to 467th amino acids of human PPARα; expressed in transfected cells; host or cells: COS cells (African green monkey kidney)
T3 sequence (Q07869 166-467): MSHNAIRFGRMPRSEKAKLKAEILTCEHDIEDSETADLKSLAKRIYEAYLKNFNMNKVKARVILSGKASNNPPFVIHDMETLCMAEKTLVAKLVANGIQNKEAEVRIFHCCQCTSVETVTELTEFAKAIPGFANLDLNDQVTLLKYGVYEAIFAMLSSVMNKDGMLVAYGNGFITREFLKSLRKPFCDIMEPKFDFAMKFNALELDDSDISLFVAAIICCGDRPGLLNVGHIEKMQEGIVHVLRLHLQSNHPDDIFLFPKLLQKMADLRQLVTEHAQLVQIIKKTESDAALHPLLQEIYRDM
Method: as §1, §2, §3, §4

`CCCCCCN(CCCCCSc1ccccc1C(=O)O)c1nc2ccccc2o1` [Example 101, 2-[5-[N-(Benzoxazol-2-yl)-N-n-hexyl]aminopentylthio]benzoic acid] was tested, and the “hPPAR; Relative activity γ” value (human PPARγ2) was 1.8, the “hPPAR; Relative activity δ” value (human PPARδ) was 0.7 and the “hPPAR; Relative activity α” value (human PPARα) was 14.0.
